{"source": "the supplement of paper PMC8728848", "binders": {"B1": {"name": "CD23 (Homo sapiens) (protein)", "chain": "MELQVSSGFVCNTCPEKWINFQRKCYYFGKGTKQWVHARYACDDMEGQLVSIHSPEEQDFLTKHASHTGSWIGLRNLDLKGEFIWVDGSHVDYSNWAPGEPTSRSQGEDCVMMRGSGRWNDAFCDRKLGAWVCDRLATCTPPASEGSAESMGPDSRPDPDGRLPTPSAPLHS"}}, "assay_in_all_cases": "glycan array binding signal (z-score within array); higher = stronger binding", "settings_in_all_cases": "glycan notation: IUPAC condensed, linker removed", "key": {"Fuc(a1-2)Gal": {"target": "Fuc(a1-2)Gal", "method_in_brief": "(§1)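 Arrays were curated from the Consortium for Functional Glycomics database, 3228 in total, and kept only where the protein sequence was available. Binding is expressed as a within-array Z-score. This score was averaged across arrays of the same protein sequence at different concentrations or buffers and across linkers, and negative values can be read as non-binding.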"}, "Fuc(a1-2)Gal(b1-3)GalNAc": {"target": "Fuc(a1-2)Gal(b1-3)GalNAc", "method_in_brief": "as §1"}, "[1]": {"target": "Fuc(a1-2)Gal(b1-3)GalNAc(b1-3)Gal", "method_in_brief": "as §1"}, "[2]": {"target": "Fuc(a1-2)Gal(b1-3)GalNAc(b1-3)Gal(a1-4)Gal(b1-4)Glc", "method_in_brief": "as §1"}, "[3]": {"target": "Fuc(a1-2)Gal(b1-3)GalNAc(b1-4)[Neu5Ac(a2-3)]Gal(b1-4)Glc", "method_in_brief": "as §1"}, "Fuc(a1-2)Gal(b1-3)GlcNAc": {"target": "Fuc(a1-2)Gal(b1-3)GlcNAc", "method_in_brief": "as §1"}, "[4]": {"target": "Fuc(a1-2)Gal(b1-3)GlcNAc(b1-3)Gal(b1-4)Glc", "method_in_brief": "as §1"}, "[5]": {"target": "Fuc(a1-2)Gal(b1-3)[Fuc(a1-4)]GlcNAc", "method_in_brief": "as §1"}, "Fuc(a1-2)Gal(b1-4)Glc": {"target": "Fuc(a1-2)Gal(b1-4)Glc", "method_in_brief": "as §1"}, "Fuc(a1-2)Gal(b1-4)Glc6S": {"target": "Fuc(a1-2)Gal(b1-4)Glc6S", "method_in_brief": "as §1"}, "Fuc(a1-2)Gal(b1-4)GlcNAc": {"target": "Fuc(a1-2)Gal(b1-4)GlcNAc", "method_in_brief": "as §1"}, "[6]": {"target": "Fuc(a1-2)Gal(b1-4)GlcNAc(b1-3)Gal(b1-4)GlcNAc", "method_in_brief": "as §1"}, "[7]": {"target": "Fuc(a1-2)Gal(b1-4)GlcNAc(b1-3)Gal(b1-4)GlcNAc(b1-3)Gal(b1-4)GlcNAc", "method_in_brief": "as §1"}, "[8]": {"target": "Fuc(a1-2)Gal(b1-4)GlcNAc6S", "method_in_brief": "as §1"}, "[9]": {"target": "Fuc(a1-2)Gal(b1-4)[Fuc(a1-3)]GlcNAc", "method_in_brief": "as §1"}, "[10]": {"target": "Fuc(a1-2)Gal(b1-4)[Fuc(a1-3)]GlcNAc(b1-3)Gal(b1-4)[Fuc(a1-3)]GlcNAc", "method_in_brief": "as §1"}, "[11]": {"target": "Fuc(a1-2)Gal(b1-4)[Fuc(a1-3)]GlcNAc(b1-3)Gal(b1-4)[Fuc(a1-3)]GlcNAc(b1-3)Gal(b1-4)[Fuc(a1-3)]GlcNAc", "method_in_brief": "as §1"}, "Fuc(a1-2)Gal6S(b1-4)Glc": {"target": "Fuc(a1-2)Gal6S(b1-4)Glc", "method_in_brief": "as §1"}, "[12]": {"target": "Fuc(a1-2)Gal6S(b1-4)Glc6S", "method_in_brief": "as §1"}, "[13]": {"target": "Fuc(a1-2)Gal6S(b1-4)GlcNAc", "method_in_brief": "as §1"}, "Fuc(a1-2)[Gal(a1-3)]Gal": {"target": "Fuc(a1-2)[Gal(a1-3)]Gal", "method_in_brief": "as §1"}, "[14]": {"target": "Fuc(a1-2)[Gal(a1-3)]Gal(b1-3)GlcNAc", "method_in_brief": "as §1"}, "[15]": {"target": "Fuc(a1-2)[Gal(a1-3)]Gal(b1-4)Glc", "method_in_brief": "as §1"}, "[16]": {"target": "Fuc(a1-2)[Gal(a1-3)]Gal(b1-4)GlcNAc", "method_in_brief": "as §1"}, "[17]": {"target": "Fuc(a1-2)[Gal(a1-3)]Gal(b1-4)[Fuc(a1-3)]GlcNAc", "method_in_brief": "as §1"}, "[18]": {"target": "Fuc(a1-2)[Gal(a1-4)]Gal(b1-4)GlcNAc", "method_in_brief": "as §1"}, "[19]": {"target": "Fuc(a1-2)[GalNAc(a1-3)]Gal", "method_in_brief": "as §1"}, "[20]": {"target": "Fuc(a1-2)[GalNAc(a1-3)]Gal(b1-3)GlcNAc", "method_in_brief": "as §1"}, "[21]": {"target": "Fuc(a1-2)[GalNAc(a1-3)]Gal(b1-4)Glc", "method_in_brief": "as §1"}, "[22]": {"target": "Fuc(a1-2)[GalNAc(a1-3)]Gal(b1-4)GlcNAc", "method_in_brief": "as §1"}}, "note": "The list shows a part of the results."}
{"binder": "B1", "values": [{"measurement": "glycan array binding signal (z-score)", "setting": "Fuc(a1-2)Gal", "result": 0.118}, {"measurement": "glycan array binding signal (z-score)", "setting": "Fuc(a1-2)Gal(b1-3)GalNAc", "result": 0.063}, {"measurement": "glycan array binding signal (z-score)", "setting": "[1]", "result": 0.068}, {"measurement": "glycan array binding signal (z-score)", "setting": "[2]", "result": -0.405}, {"measurement": "glycan array binding signal (z-score)", "setting": "[3]", "result": -0.334}, {"measurement": "glycan array binding signal (z-score)", "setting": "Fuc(a1-2)Gal(b1-3)GlcNAc", "result": -0.127}, {"measurement": "glycan array binding signal (z-score)", "setting": "[4]", "result": -0.327}, {"measurement": "glycan array binding signal (z-score)", "setting": "[5]", "result": -0.319}, {"measurement": "glycan array binding signal (z-score)", "setting": "Fuc(a1-2)Gal(b1-4)Glc", "result": -0.335}, {"measurement": "glycan array binding signal (z-score)", "setting": "Fuc(a1-2)Gal(b1-4)Glc6S", "result": 0.075}, {"measurement": "glycan array binding signal (z-score)", "setting": "Fuc(a1-2)Gal(b1-4)GlcNAc", "result": 0.033}, {"measurement": "glycan array binding signal (z-score)", "setting": "[6]", "result": -0.653}, {"measurement": "glycan array binding signal (z-score)", "setting": "[7]", "result": -0.077}, {"measurement": "glycan array binding signal (z-score)", "setting": "[8]", "result": -0.186}, {"measurement": "glycan array binding signal (z-score)", "setting": "[9]", "result": 0.228}, {"measurement": "glycan array binding signal (z-score)", "setting": "[10]", "result": 0.422}, {"measurement": "glycan array binding signal (z-score)", "setting": "[11]", "result": 0.748}, {"measurement": "glycan array binding signal (z-score)", "setting": "Fuc(a1-2)Gal6S(b1-4)Glc", "result": 0.184}, {"measurement": "glycan array binding signal (z-score)", "setting": "[12]", "result": -0.617}, {"measurement": "glycan array binding signal (z-score)", "setting": "[13]", "result": -0.017}, {"measurement": "glycan array binding signal (z-score)", "setting": "Fuc(a1-2)[Gal(a1-3)]Gal", "result": -0.374}, {"measurement": "glycan array binding signal (z-score)", "setting": "[14]", "result": -0.086}, {"measurement": "glycan array binding signal (z-score)", "setting": "[15]", "result": -0.458}, {"measurement": "glycan array binding signal (z-score)", "setting": "[16]", "result": 0.175}, {"measurement": "glycan array binding signal (z-score)", "setting": "[17]", "result": 0.988}, {"measurement": "glycan array binding signal (z-score)", "setting": "[18]", "result": -0.123}, {"measurement": "glycan array binding signal (z-score)", "setting": "[19]", "result": -0.099}, {"measurement": "glycan array binding signal (z-score)", "setting": "[20]", "result": 0.445}, {"measurement": "glycan array binding signal (z-score)", "setting": "[21]", "result": -0.582}, {"measurement": "glycan array binding signal (z-score)", "setting": "[22]", "result": 0.066}]}
